PubChem BioAssay AID1259308 | NCATS | 2017
Aim: 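Candidate targets for better recombinant protein yield in mammalian cells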 (primary screen). Cells: human HEK293 embryonic kidney cells stably expressing firefly luciferase (HEK-CMV-Luc2-Hygro). Reagents: single siRNA against human genes, 0.8 pmol siRNA per well. Duration: 72 h. Detection: 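Luciferase light (ONE-Glo) measured on one replicate plate set and viability (CellTiter-Glo) on the other, scaled to a negative control siRNA, with robust z-scores and luciferase per cell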. Direction: total luciferase, z-score and total luciferase, % of control: higher = more reporter protein produced; luciferase per cell, z-score: higher = more reporter output per viable cell; viable cells, % of control: higher = more viable cells. Active means: 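An siRNA counts as active if its total luciferase robust z-score exceeds 3; genes with two or more such siRNAs out of three were retested with fresh siRNAs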. Meaning of the calls: active = raised luciferase; inactive = no rise.
Shown is an unselected part of about 59,000 reagents tested. Over the whole deposit, about 1,510 (2.6%) were called active. 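Calls use total luciferase alone and ignore viability, so some active siRNAs may act by altering cell number.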 A number with no mark means an inactive call.

gene knocked down	PubChem SID	total luciferase, z-score	total luciferase, % of control	luciferase per cell, z-score	viable cells, % of control
TAF13 (GeneID 6884)	SID160717681	0.202	85.9	1.58	63.4
TAF13 (GeneID 6884)	SID160717682	-0.363	74.7	-0.529	95.9
TAF13 (GeneID 6884)	SID160717683	0.419	90.2	0.0546	99.4
SNX8 (GeneID 29886)	SID160739227	-0.0728	80.4	0.0569	88.5
SNX8 (GeneID 29886)	SID160739228	-0.151	78.9	-0.631	104
SNX8 (GeneID 29886)	SID160739229	2.9	140	2.65	77.5
LRRC42 (GeneID 115353)	SID160755195	4.56 (active)	173	3.33	80.3
LRRC42 (GeneID 115353)	SID160755196	1.71	116	1.95	77.6
LRRC42 (GeneID 115353)	SID160755197	-0.638	69.2	-0.535	89
CLIC2 (GeneID 1193)	SID160744445	-0.331	75.3	-0.681	101
CLIC2 (GeneID 1193)	SID160744457	-0.421	73.5	-0.713	99.1
CLIC2 (GeneID 1193)	SID160744468	-1.34	55.3	-0.365	68
KCNA7 (GeneID 3743)	SID160731157	0.838	98.6	1.45	75.1
KCNA7 (GeneID 3743)	SID160776123	-1.17	58.5	-1.4	94.6
KCNA7 (GeneID 3743)	SID160776124	-0.702	67.9	-0.673	90.6
OR4N4 (GeneID 283694)	SID160763019	0.0731	83.3	2.2	52.2
OR4N4 (GeneID 283694)	SID160763020	0.707	95.9	1.42	73.7
OR4N4 (GeneID 283694)	SID160763022	-0.791	66.2	-1.45	108
TIPIN (GeneID 54962)	SID160742611	0.191	85.7	-0.291	103
TIPIN (GeneID 54962)	SID160742612	-0.702	67.9	-1.02	99.4
TIPIN (GeneID 54962)	SID160742613	0.0256	82.4	-0.243	98.1
AK4 (GeneID 205)	SID160715999	0.416	90.2	-0.00275	101
AK4 (GeneID 205)	SID160716010	1.52	112	1.01	96
AK4 (GeneID 205)	SID160716020	-0.708	67.8	-1.66	117
AK4 (GeneID 205)	SID160765698	-0.251	76.9	-0.125	88.8
AK4 (GeneID 205)	SID160765699	1.26	107	1.42	82.1
AK4 (GeneID 205)	SID160765700	0.163	85.1	0.188	90.5
EPHB4 (GeneID 2050)	SID160736782	1.1	104	0.694	96.6
EPHB4 (GeneID 2050)	SID160736884	-0.75	67	-0.585	87.3
EPHB4 (GeneID 2050)	SID160736991	-0.812	65.7	-1.02	96.1
NLGN3 (GeneID 54413)	SID160741651	-0.369	74.6	0.159	79.9
NLGN3 (GeneID 54413)	SID160741652	-1.78	46.4	-2.01	88.1
NLGN3 (GeneID 54413)	SID160741653	0.165	85.2	-0.27	102
LOC100288510 (GeneID 100288510)	SID160767426	-0.778	66.4	0.000381	74.2
LOC100288510 (GeneID 100288510)	SID160767428	1.11	104	0.463	103
LOC100288510 (GeneID 100288510)	SID160767429	-0.249	76.9	-0.991	112
ADIRF (GeneID 10974)	SID160729659	-0.0604	80.7	-0.739	110
ADIRF (GeneID 10974)	SID160729660	-0.338	75.2	-0.941	108
ADIRF (GeneID 10974)	SID160732308	0.45	90.8	0.34	92.8
KLF8 (GeneID 11279)	SID160730353	-1.52	51.6	-1.89	94.8
KLF8 (GeneID 11279)	SID160730354	0.318	88.2	0.163	94.4
KLF8 (GeneID 11279)	SID160730355	-0.217	77.6	0.308	79.9
VSTM2B (GeneID 342865)	SID160764640	0.842	98.6	0.972	85.3
VSTM2B (GeneID 342865)	SID160764641	-1.34	55.3	-1.75	98
VSTM2B (GeneID 342865)	SID160764642	1.81	118	1.61	86.1
SHISA9 (GeneID 729993)	SID160734679	-1.13	59.5	-0.305	72
SHISA9 (GeneID 729993)	SID160734680	-0.0967	80	0.258	83.5
SHISA9 (GeneID 729993)	SID160767757	1.47	111	0.757	102
SHISA9 (GeneID 729993)	SID160767758	0.635	94.5	-0.163	110
SHISA9 (GeneID 729993)	SID160767759	0.163	85.1	-0.124	98.3
SHISA9 (GeneID 729993)	SID160773373	2.02	122	2.46	71.3
ZBTB16 (GeneID 7704)	SID160719186	-1.65	49.1	-0.334	59.9
ZBTB16 (GeneID 7704)	SID160719187	-0.138	79.1	-0.418	98.7
ZBTB16 (GeneID 7704)	SID160719190	1.28	107	1.58	79.2
GPSM2 (GeneID 29899)	SID160739255	1.16	105	0.879	93.1
GPSM2 (GeneID 29899)	SID160739256	-0.773	66.5	0.0498	73.4
GPSM2 (GeneID 29899)	SID160739257	-0.704	67.9	0.0388	75.1

Reagents above called active (1):
gene knocked down	PubChem SID	total luciferase, z-score	total luciferase, % of control	luciferase per cell, z-score	viable cells, % of control
LRRC42 (GeneID 115353)	SID160755195	4.56 (active)	173	3.33	80.3
